Measurements taken from PMC9724675.
These are yes or no findings as the source states them, for the method shown. In cells and extracts the contact can be indirect. For part of these data: Binding can be weak; no strength is given. Where a sequence is shown, tags or fusion partners need not be part of it.

How the values were obtained:
POPDC1Δ236-Myc (mouse) = assay: co-IP; COS-7 lysates, immunoprecipitation of Myc-tagged POPDC1 and truncations with anti-MYC, western blot with anti-AC9 and anti-MYC
[1] = target: POPDC1Δ236 fused to a half of Venus (BiFC construct) (mouse); assay: split reporter; BiFC (split Venus, VN and VC) in COS-7 cells, which lack detectable endogenous POPDC proteins; plate reader, normalised to DAPI
[2] = target: endogenous POPDC2 of neonatal rat cardiomyocytes (rat (endogenous in neonatal cardiomyocytes)); assay: proximity ligation; neonatal rat cardiomyocytes infected with adenovirus for Flag-tagged AC9 or Flag-tagged GFP; antibodies against Flag and endogenous POPDC1, POPDC2 or Gβγ

B1: Flag-tagged AC9 (adenylyl cyclase 9) (enzyme, UniProt O60503 1-1353)
chain: MASPPHQQLLHHHSTEVSCDSSGDSNSVRVKINPKQLSSNSHPKHCKYSISSSCSSSGDSGGVPRRVGGGGRLRRQKKLPQLFERASSRWWDPKFDSVNLEEACLERCFPQTQRRFRYALFYIGFACLLWSIYFAVHMRSRLIVMVAPALCFLLVCVGFFLFTFTKLYARHYAWTSLALTLLVFALTLAAQFQVLTPVSGRGDSSNLTATARPTDTCLSQVGSFSMCIEVLFLLYTVMHLPLYLSLCLGVAYSVLFETFGYHFRDEACFPSPGAGALHWELLSRGLLHGCIHAIGVHLFVMSQVRSRSTFLKVGQSIMHGKDLEVEKALKERMIHSVMPRIIADDLMKQGDEESENSVKRHATSSPKNRKKKSSIQKAPIAFRPFKMQQIEEVSILFADIVGFTKMSANKSAHALVGLLNDLFGRFDRLCEETKCEKISTLGDCYYCVAGCPEPRADHAYCCIEMGLGMIKAIEQFCQEKKEMVNMRVGVHTGTVLCGILGMRRFKFDVWSNDVNLANLMEQLGVAGKVHISEATAKYLDDRYEMEDGKVIERLGQSVVADQLKGLKTYLISGQRAKESRCSCAEALLSGFEVIDGSQVSSGPRGQGTASSGNVSDLAQTVKTFDNLKTCPSCGITFAPKSEAGAEGGAPQNGCQDEHKNSTKASGGPNPKTQNGLLSPPQEEKLTNSQTSLCEILQEKGRWAGVSLDQSALLPLRFKNIREKTDAHFVDVIKEDSLMKDYFFKPPINQFSLNFLDQELERSYRTSYQEEVIKNSPVKTFASPTFSSLLDVFLSTTVFLTLSTTCFLKYEAATVPPPPAALAVFSAALLLEVLSLAVSIRMVFFLEDVMACTKRLLEWIAGWLPRHCIGAILVSLPALAVYSHVTSEYETNIHFPVFTGSAALIAVVHYCNFCQLSSWMRSSLATVVGAGPLLLLYVSLCPDSSVLTSPLDAVQNFSSERNPCNSSVPRDLRRPASLIGQEVVLVFFLLLLLVWFLNREFEVSYRLHYHGDVEADLHRTKIQSMRDQADWLLRNIIPYHVAEQLKVSQTYSKNHDSGGVIFASIVNFSEFYEENYEGGKECYRVLNELIGDFDELLSKPDYSSIEKIKTIGATYMAASGLNTAQAQDGSHPQEHLQILFEFAKEMMRVVDDFNNNMLWFNFKLRVGFNHGPLTAGVIGTTKLLYDIWGDTVNIASRMDTTGVECRIQVSEESYRVLSKMGYDFDYRGTVNVKGKGQMKTYLYPKCTDHRVIPQHQLSISPDIRVQVDGSIGRSPTDEIANLVPSVQYVDKTSLGSDSSTQAKDAHLSPKRPWKEPVKAEERGRFGKAIEKDDCDETGIEEANELTKLNVSKSV
binding (POPDC1Δ236-Myc (mouse)): binds

B2: AC9-VN and AC9-VC (AC9 fused to the N-terminal or C-terminal half of Venus) (enzyme, UniProt O60503 1-1353)
chain: B1 chain
binding [1]: binds

B3: Flag-tagged AC9, adenovirally expressed (enzyme, UniProt O60503 1-1353)
chain: B1 chain
binding [2]: no binding
